Laboratory results: PubChem BioAssay AID652272 (Drosophila RNAi Screening Center, 2013)
The deposit covers about 21,000 reagents; below is an unselected part of those with a known target gene and a result. Of all reagents, 503 (2.4%) are marked active. 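Raw plate light values, not normalised; calls rest on replicate z-scores that were not deposited; hits include reporter decreases as well as increases.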 The numbers tell different reagents against one gene apart. No sequences are given here. The record does not give: the amount of reagent, the time to read-out.

Test: 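Finding fly genes that regulate Hedgehog signal transduction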 (primary screen)
System: Drosophila clone 8 (Cl8) cells
Reagents: long dsRNA against Drosophila genes
Read-out: 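Plate reader light from a firefly reporter under a ptc promoter fragment that responds to Hedgehog, with Renilla light as transfection reference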
Scale: firefly Hh reporter signal: higher = more ptc reporter light; Renilla reference signal: higher = more Renilla control light
Call rule: 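Hit when the z-score averaged over two replicates is under -2 or over +3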
Calls: active = hit: reporter lowered or raised; inactive = not a hit

CG3092 (GeneID 37682) → firefly Hh reporter signal, replicate 1: 92336; firefly Hh reporter signal, replicate 2: 49366; Renilla reference signal, replicate 1: 4115; Renilla reference signal, replicate 2: 2237; outcome: inactive
CARPB (GeneID 31915) #1 → firefly Hh reporter signal, replicate 1: 1.41e5; firefly Hh reporter signal, replicate 2: 1.31e5; Renilla reference signal, replicate 1: 3233; Renilla reference signal, replicate 2: 3184; outcome: inactive
CARPB (GeneID 31915) #2 → firefly Hh reporter signal, replicate 1: 85293; firefly Hh reporter signal, replicate 2: 2.57e5; Renilla reference signal, replicate 1: 2599; Renilla reference signal, replicate 2: 8528; outcome: inactive
CG3868 (GeneID 39580) → firefly Hh reporter signal, replicate 1: 68067; firefly Hh reporter signal, replicate 2: 37014; Renilla reference signal, replicate 1: 2824; Renilla reference signal, replicate 2: 1635; outcome: inactive
ash2 (GeneID 42936) → firefly Hh reporter signal, replicate 1: 1.10e5; firefly Hh reporter signal, replicate 2: 1.21e5; Renilla reference signal, replicate 1: 4817; Renilla reference signal, replicate 2: 4528; outcome: inactive

Look-ups from the list.
CG3092 (GeneID 37682), firefly Hh reporter signal, replicate 2: 49366
Entry of CARPB (GeneID 31915) #1 in “firefly Hh reporter signal, replicate 2”: 1.31e5

Continued.
CG18273 (GeneID 30991) #1 → firefly Hh reporter signal, replicate 1: 1.07e5; firefly Hh reporter signal, replicate 2: 3.10e5; Renilla reference signal, replicate 1: 4035; Renilla reference signal, replicate 2: 13498; outcome: inactive
CG18273 (GeneID 30991) #2 → firefly Hh reporter signal, replicate 1: 1.26e5; firefly Hh reporter signal, replicate 2: 1.06e5; Renilla reference signal, replicate 1: 2920; Renilla reference signal, replicate 2: 3850; outcome: inactive
stck (GeneID 40999) → firefly Hh reporter signal, replicate 1: 74816; firefly Hh reporter signal, replicate 2: 1.20e5; Renilla reference signal, replicate 1: 2104; Renilla reference signal, replicate 2: 3464; outcome: inactive
tHMG1 (GeneID 42650) → firefly Hh reporter signal, replicate 1: 8.35e5; firefly Hh reporter signal, replicate 2: 1.46e5; Renilla reference signal, replicate 1: 52739; Renilla reference signal, replicate 2: 395; outcome: inactive
Hexo1 (GeneID 38528) → firefly Hh reporter signal, replicate 1: 1.06e5; firefly Hh reporter signal, replicate 2: 45104; Renilla reference signal, replicate 1: 3840; Renilla reference signal, replicate 2: 355; outcome: inactive
Gr32a (GeneID 34545) → firefly Hh reporter signal, replicate 1: 1.28e5; firefly Hh reporter signal, replicate 2: 90951; Renilla reference signal, replicate 1: 4035; Renilla reference signal, replicate 2: 7418; outcome: inactive
CG32444 (GeneID 40406) → firefly Hh reporter signal, replicate 1: 91570; firefly Hh reporter signal, replicate 2: 1.10e5; Renilla reference signal, replicate 1: 4401; Renilla reference signal, replicate 2: 4019; outcome: inactive
C901 (GeneID 32032) → firefly Hh reporter signal, replicate 1: 76280; firefly Hh reporter signal, replicate 2: 2.11e5; Renilla reference signal, replicate 1: 2481; Renilla reference signal, replicate 2: 8176; outcome: inactive
CG13318 (GeneID 41048) → firefly Hh reporter signal, replicate 1: 1.13e5; firefly Hh reporter signal, replicate 2: 1.41e5; Renilla reference signal, replicate 1: 4364; Renilla reference signal, replicate 2: 4166; outcome: inactive
